For series [1], the target named is Tdp1 SCAN1 H493R (human) (UniProt Q9NUW8). The series can be described thus: EMSA. Particulars: 1-10 nM, on ice, made by UDG, 50 mM Tris-HCl pH 7.5, 50 mM KCl, 10 nM 5'-32P DNA, UDG pretreatment (0.5 U/ul, 15 min, 37 C), complexes formed on ice, 5% native PAGE in TBE at 4 C, recombinant protein, protein details: Ni-chelating resin purification (His tag implied).
For series [2], the target named is Tdp1 H263A (human) (UniProt Q9NUW8). The series can be described thus: EMSA. Particulars: 1-10 nM, on ice, made by UDG, 50 mM Tris-HCl pH 7.5, 50 mM KCl, 10 nM 5'-32P DNA, UDG pretreatment (0.5 U/ul, 15 min, 37 C), complexes formed on ice, 5% native PAGE in TBE at 4 C, recombinant protein, protein details: Ni-chelating resin purification (His tag implied).
Setting [3] is: AP site at the U of strand 1 (position 25), label: 5'-32P (strand 1).
The mark [4] stands for this setting: AP site at the U (position 25), label: 5'-32P, single-stranded DNA.

Chains of the proteins cited; added tags and fusions are not shown.
UniProt Q9NUW8, whole entry H493R: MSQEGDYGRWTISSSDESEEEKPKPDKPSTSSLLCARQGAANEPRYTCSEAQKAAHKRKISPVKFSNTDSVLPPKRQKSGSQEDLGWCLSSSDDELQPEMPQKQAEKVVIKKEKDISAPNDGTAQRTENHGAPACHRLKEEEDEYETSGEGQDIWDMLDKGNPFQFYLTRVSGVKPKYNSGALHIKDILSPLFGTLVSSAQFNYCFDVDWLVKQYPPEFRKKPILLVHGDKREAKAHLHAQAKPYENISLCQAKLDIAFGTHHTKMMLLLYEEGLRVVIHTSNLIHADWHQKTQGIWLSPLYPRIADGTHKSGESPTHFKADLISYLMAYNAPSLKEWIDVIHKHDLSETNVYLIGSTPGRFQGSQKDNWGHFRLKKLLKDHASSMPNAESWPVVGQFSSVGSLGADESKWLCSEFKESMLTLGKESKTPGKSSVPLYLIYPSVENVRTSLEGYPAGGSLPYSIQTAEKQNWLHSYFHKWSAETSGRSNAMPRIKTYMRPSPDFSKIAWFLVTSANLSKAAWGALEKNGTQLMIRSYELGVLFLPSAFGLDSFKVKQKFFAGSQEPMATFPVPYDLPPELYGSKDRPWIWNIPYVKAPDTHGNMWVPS
UniProt Q9NUW8, whole entry H263A: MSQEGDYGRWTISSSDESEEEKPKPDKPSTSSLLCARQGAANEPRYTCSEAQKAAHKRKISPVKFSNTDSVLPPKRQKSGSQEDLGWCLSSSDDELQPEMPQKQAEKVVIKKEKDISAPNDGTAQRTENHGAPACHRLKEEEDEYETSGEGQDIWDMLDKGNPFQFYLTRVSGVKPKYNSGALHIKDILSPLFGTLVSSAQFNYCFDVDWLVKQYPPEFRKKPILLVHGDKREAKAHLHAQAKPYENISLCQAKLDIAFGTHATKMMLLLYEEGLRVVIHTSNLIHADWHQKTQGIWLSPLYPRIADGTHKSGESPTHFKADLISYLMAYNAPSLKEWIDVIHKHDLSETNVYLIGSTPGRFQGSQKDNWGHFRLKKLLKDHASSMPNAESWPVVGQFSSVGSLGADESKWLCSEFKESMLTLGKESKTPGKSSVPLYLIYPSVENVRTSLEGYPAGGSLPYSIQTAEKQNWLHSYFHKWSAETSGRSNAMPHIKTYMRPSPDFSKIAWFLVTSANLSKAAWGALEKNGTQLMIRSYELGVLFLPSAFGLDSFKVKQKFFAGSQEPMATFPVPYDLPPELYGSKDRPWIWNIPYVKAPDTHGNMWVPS

The exact form of at least one protein or probe is not confirmed. At least one verdict was read from the data and is not stated in words by the source.

For “CTATGGCGAGGCGATTAAGTTGGGUACGTCAGGGTCTTCCGAACGAC / GTCGTTCGGAAGACCCTGACGTTGCCCAACTTAATCGCCTCGCCATAG [dsAP-DNA]”, the binding result in series [1] (setting [3]) and in series [2] (setting [3]) was “binds” each time.

For the sequence “CTATGGCGAGGCGATTAAGTTGGGUACGTCAGGGTCTTCCGAACGAC [ssAP-DNA]”, the binding result in series [1] (setting [4]) and in series [2] (setting [4]) was “binds” in each case.

The record behind these values is paper PMC3778944.
